Laboratory results: PubChem BioAssay AID743454 (Peter MacCallum Cancer Centre, 2014)

- Test: 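Genes whose loss kills vorinostat-resistant colon cancer cells under vorinostat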 (primary screen)
- Cell system: human HCT116-VR colon cancer cells, selected for vorinostat resistance
- Knock-down reagent: siRNA pool against human genes, 40 nM siRNA pool
- Timing: vorinostat for 24 h, read-out about 72 h after transfection
- Conditions: vorinostat at 2.5 µM final
- Measured: 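Cell viability by CellTiter-Fluor and caspase 3/7 activity by luminescence, each scaled to mock wells per plate, duplicates averaged, then robust z-scored over all plates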
- Reading the numbers: viability robust z-score: higher = more viable cells than screen typical; caspase robust z-score: higher = more caspase 3/7 activity than screen typical
- Call rule: 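Hits are knock-downs in viability class RV1/RV2 or caspase class CA1/CA2, excluding ones that killed cells in the no-drug cell-count arm; hits then retested with single siRNAs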
The deposit covers about 18,000 reagents; shown is a part drawn at random. 450 of all reagents (2.5%) were called active. 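Single biological run; no consistent viability z cut-off exists, so the class columns, not z-scores, define the calls.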

| gene | viability hit class | caspase hit class | viability robust z-score | caspase robust z-score | Outcome |
| --- | --- | --- | --- | --- | --- |
| REEP2 | no change | no change | -0.86 | 1.03 | inactive |
| BAGE5 | no change | no change | -1.4 | 1.36 | inactive |
| SELENOO | no change | no change | 0.16 | 0.9 | inactive |
| OR3A2 | no change | no change | 0.31 | 0.64 | inactive |
| LINC02908 | no change | no change | -1.04 | -0.57 | inactive |
| KDF1 | no change | no change | -2.59 | 0.88 | inactive |
| SPACA9 | no change | no change | 0.12 | -0.06 | inactive |
| PTHLH | no change | no change | -0.23 | -0.26 | inactive |
| TAL2 | no change | no change | -0.04 | -0.28 | inactive |
| CD164L2 | no change | no change | 0.68 | -0.98 | inactive |
| CNMD | no change | no change | 0.61 | 1.19 | inactive |
| BICD2 | no change | no change | 0.1 | 2.66 | inactive |
| AGR3 | no change | no change | 0.59 | -0.2 | inactive |
| ARHGEF19 | no change | no change | -0.83 | -1 | inactive |
| ELOB | no change | no change | -0.42 | -0.05 | inactive |
| NID1 | no change | no change | 0.73 | -0.83 | inactive |
| BTBD2 | no change | no change | 0.02 | 3.61 | inactive |
| TMED9 | no change | no change | -1.23 | 1.18 | inactive |
| STX3 | no change | no change | 0.84 | -1.21 | inactive |
| HSD17B13 | no change | no change | 1.48 | 0.25 | inactive |
| BBS4 | no change | no change | 0.84 | -0.06 | inactive |
| DMC1 | no change | no change | 0.62 | -0.09 | inactive |
| TADA3 | no change | no change | -0.44 | 2.44 | inactive |
| CCL18 | no change | no change | 0.96 | 0.46 | inactive |
| AEN | no change | no change | 0.08 | 0.09 | inactive |
| TBCA | no change | no change | -1.57 | 2.87 | inactive |
| TNR | no change | no change | 1.61 | -0.3 | inactive |
| PHF8 | no change | no change | -0.52 | -1.31 | inactive |
| ISOC2 | no change | no change | 0.18 | 4.64 | inactive |

5 neighbouring reagents already listed:
| gene | viability hit class | caspase hit class | viability robust z-score | caspase robust z-score | Outcome |
| --- | --- | --- | --- | --- | --- |
| DMC1 | no change | no change | 0.62 | -0.09 | inactive |
| TADA3 | no change | no change | -0.44 | 2.44 | inactive |
| CCL18 | no change | no change | 0.96 | 0.46 | inactive |
| AEN | no change | no change | 0.08 | 0.09 | inactive |
| TBCA | no change | no change | -1.57 | 2.87 | inactive |

Additional results follow:
| gene | viability hit class | caspase hit class | viability robust z-score | caspase robust z-score | Outcome |
| --- | --- | --- | --- | --- | --- |
| BAP1 | no change | no change | 0.18 | 2.58 | inactive |
| ATR | no change | no change | -0.38 | -0.46 | inactive |
| POMGNT2 | no change | no change | -0.35 | -0.45 | inactive |
| RC3H2 | no change | no change | -0.34 | 0.66 | inactive |
| CHRDL2 | no change | no change | 0.38 | -0.97 | inactive |
| CCNL1 | no change | no change | -2.19 | -1.07 | inactive |
| CAD | no change | no change | 0.39 | -0.76 | inactive |
| EPHB4 | no change | no change | -0.74 | 2.83 | inactive |
| ZFP1 | no change | no change | 0.11 | -1.27 | inactive |
| SLC35D2 | no change | no change | -1.55 | 3.89 | inactive |
| KRT12 | no change | no change | 0.32 | -0.84 | inactive |
| LILRA6 | no change | no change | 0.2 | -0.22 | inactive |
| NR0B1 | no change | no change | 0.66 | -0.93 | inactive |
| HSPA8 | no change | no change | -0.16 | -1.39 | inactive |
| TMEM14B | no change | no change | -1.36 | 3.63 | inactive |
| ADAMTS17 | no change | no change | -1.25 | 0.12 | inactive |
| ERCC6L | no change | no change | -0.22 | -0.24 | inactive |
| CFHR2 | no change | no change | 0.57 | -0.45 | inactive |
| COPS3 | no change | no change | -0.94 | 0.16 | inactive |
| WFDC5 | no change | no change | -0.26 | 0.45 | inactive |
| TCEANC2 | no change | no change | -1.86 | 3.15 | inactive |
| ZNF646 | no change | CA2 (caspase activation) | 0.17 | 5.83 | active |
| NEIL1 | no change | no change | -0.98 | -1.05 | inactive |
| B3GNT3 | no change | no change | 0.39 | 0.36 | inactive |
| OR4P4 | no change | no change | 1.09 | -1.17 | inactive |
| GPT2 | no change | no change | 0.34 | 3.33 | inactive |
| TP53BP2 | no change | no change | 0.48 | -0.22 | inactive |
| STRC | no change | no change | 0.09 | 1.66 | inactive |
